# Experimental data reported in PubChem BioAssay AID2551 (National Center for Advancing Translational Sciences (NCATS), 2010).
# Sequences of proteins named here, by UniProt entry; tags and fusion partners are left off. A change or cut given only in a name is not applied to a line headed by its entry.
# UniProt P51450: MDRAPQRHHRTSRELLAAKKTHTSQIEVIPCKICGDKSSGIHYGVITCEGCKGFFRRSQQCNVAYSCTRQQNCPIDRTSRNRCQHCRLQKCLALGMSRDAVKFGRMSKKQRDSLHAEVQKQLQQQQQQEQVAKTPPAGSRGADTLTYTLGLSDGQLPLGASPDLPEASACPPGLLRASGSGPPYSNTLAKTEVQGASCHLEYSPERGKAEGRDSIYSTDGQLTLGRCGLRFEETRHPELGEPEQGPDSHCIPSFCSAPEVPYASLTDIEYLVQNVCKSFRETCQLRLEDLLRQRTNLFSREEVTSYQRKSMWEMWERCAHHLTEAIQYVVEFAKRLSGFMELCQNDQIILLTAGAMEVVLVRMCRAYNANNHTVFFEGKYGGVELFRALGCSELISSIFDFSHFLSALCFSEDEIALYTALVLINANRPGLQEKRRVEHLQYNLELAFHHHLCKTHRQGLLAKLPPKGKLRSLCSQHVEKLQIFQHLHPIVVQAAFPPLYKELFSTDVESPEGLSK
# Where “and” joins values, the source holds several entries; their conditions need not be identical. Equal values may be shown once. The whole screen tested about 310,000 compounds, of which about 17,000 (5.5%) were called active. The inconclusive results got no clear call from the source; some entries with a clear call stand among them for comparison. Calls come from the whole dose curve; as a rule, active = well fitted inhibition curve with a large enough effect; inconclusive = small, poorly fitted or top-dose-only effect, or effect the other way; inactive = no such curve, though single readings can be large or run the other way. A potency beside an inconclusive call is a rough fit, not a confirmed value.
# Molecular target: Nuclear receptor ROR-gamma (Mus musculus) (UniProt P51450)
# Assay: qHTS for inhibitors of ROR gamma transcriptional activity; note: nearly all actives have a fitted effect of over 60% in size
# Conditions: Drosophila S2 Gal4-RORgamma UAS-luciferase reporter, 20 h; activity change, negative = inhibition: at 53.6 µM (top of the series)
# How it was run: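 Stable Schneider cell line, Gal4 DNA-binding domain fused to ROR gamma, UAS-luciferase. Cmpd 1 hr RT → CuSO4 700 uM final → 20 hr RT → luciferase reagent 10 min → luminescence.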
# % is set by controls: 0 for no effect and ±100 for the full control effect; potency is the fitted concentration of half-maximal effect.
Compound,Potency,"activity change, negative = inhibition"
CC(C)Cn1c(N)c(C(=O)NCc2cccs2)c2nc3ccccc3nc21,"inconclusive: 25.1 µM [inhibitor, single point]",–
Cc1ccc(C)c(-c2nnc(NC(=O)Cc3ccccc3)o2)c1,active: 1 µM,–
COC(=O)C1(C(=O)OC)NOC2C(=O)N(c3ccccc3)C(=O)C21 (stereo not given),"inconclusive: 3.16 µM [activator, single point]",–
Cc1sc2ncnc(N/N=C/c3ccccc3O)c2c1C,active: 7.94 µM,–
COc1ccc(CSc2nc(N3CCOCC3)c3c(c2C#N)CC(C)(C)OC3)cc1,"inconclusive: 4.47 µM [activator, full curve]",–
COCCCNC(=O)C(=O)Nc1cc2c3c(c1)CCC(=O)N3CCC2,–,inactive: -9.31%
CCn1cc(C(=O)N2CCN(c3ccccc3)CC2)c(=O)c2cc(S(=O)(=O)N3CCOCC3)ccc21,–,inactive: 13.1%
COc1ccc(Nc2cc3n(c(=O)n2)CCc2cc(OC)c(OC)cc2-3)cc1,–,inactive: 0%
Oc1ccccc1N1CCN(c2nc(-c3cccs3)nc3ccccc23)CC1,–,inactive: -14.2%
CCc1nn2cc(C(=O)c3cc(C)ccc3O)cnc2c1-c1ccc(F)cc1,"inconclusive: 7.94 µM [activator, partial curve, poor fit]",–
Cc1ccc(C(=O)NCCn2cc(SCC(=O)Nc3nnc(C)s3)c3ccccc32)cc1,active: 14.1 µM,–
O=C(Nc1cccc(-c2nc3ccccc3[nH]2)c1)c1ccco1,–,inactive: 0.743%
CCS(=O)(=O)N1CCN(C(=O)c2ccc(-c3ccccc3)cc2)CC1,"inconclusive: 11.2 µM [activator, single point]",–
Cc1ccccc1N1CCN(C(=O)c2ccc(Oc3ccc(C(F)(F)F)cn3)cc2)CC1,"inconclusive: 14.1 µM [activator, single point]",–
CCS(=O)(=O)N1CCN(C(=O)c2ccccc2)CC1,"inconclusive: 0.501 µM [inhibitor, single point]",–
CC12CCC(/C(=N/O)C1=O)C2(C)C (stereo not given),–,inactive: -5.67%
COc1ccc(NC(=O)CS(=O)c2ccc(Cl)c(Cl)c2)cc1 (stereo not given),–,inactive: -2.64%
CCOc1ccccc1NC(=O)c1ccc(S(=O)(=O)N2CCCCC2)cc1,"inconclusive: 35.5 µM [inhibitor, single point]",–
S=c1[nH]nc(C2CCCCC2)n1/N=C/c1ccc(Cl)cc1,active: 0.355 µM,–
O=C(NCCc1ccc(F)cc1)Nc1ccc([N+](=O)[O-])cc1,"inconclusive: 15.8 µM [activator, single point]",–
COCCN(Cc1ccc(F)cc1)C(=O)c1cc2ccccc2oc1=O,–,inactive: -1.06%
COc1ccc(NC(=S)N/N=C2\CC(C)(C)Oc3ccc(O)cc32)cc1,active: 6.31 µM,–
COc1ccc(Cl)cc1-c1n[nH]c(=S)n1C1CCCCC1,active: 3.98 µM,–
Cc1ccc(C(=O)O/N=C\c2ccc(N3CCCCC3)c([N+](=O)[O-])c2)cc1,"inconclusive: 10 µM [activator, partial curve]",–

Compound,Potency,"activity change, negative = inhibition"
CCOC(=O)Cc1csc(NC(=O)CCc2ccc(S(=O)(=O)N3CCOCC3)cc2)n1,"inconclusive: 14.1 µM [activator, single point]",–
CC(=O)N1c2ccc(S(=O)(=O)NCC3CCC(C(=O)NC4CCCCC4C)CC3)cc2CC1C (stereo not given),"inconclusive: 35.5 µM [activator, single point]",–
Cc1oc(-c2ccc(Cl)cc2)nc1CS(=O)CC(=O)NCc1ccccn1 (stereo not given),"inconclusive: 11.2 µM [inhibitor, partial curve]",–
O=C1C(Nc2ccccc2)=C/C(=N/S(=O)(=O)c2cccs2)c2ccccc21,active: 4.47 µM,–
CCN(Cc1nc2ccccc2c(=O)[nH]1)Cc1nc2ccsc2c(=O)[nH]1,active: 0.447 µM,–
CCC(=O)Nc1nc2ccccc2n1Cc1ccc(Cl)cc1,active: 0.398 µM,–
Nc1ccccc1SCC(=O)Nc1nc(-c2ccccc2)cs1,"inconclusive: 17.8 µM [activator, single point]",–
Cc1ccccc1CN1C2=NCCN2c2ccccc21,"inconclusive: 35.5 µM [inhibitor, single point]",–
COc1c(O)ccc(/C=N/NC(=O)c2ccc3c(c2)OCCO3)c1[N+](=O)[O-],active: 1.12 µM,–
CC(=O)NS(=O)(=O)c1ccc(N=c2ssc3c2-c2ccc(C)cc2NC3(C)C)cc1,"inconclusive: 3.16 µM [activator, partial curve]",–
O=C(NCc1ccco1)C(=O)c1cn(CC(=O)N2CCCCCC2)c2ccccc12,"inconclusive: 11.2 µM [activator, partial curve]",–
COc1ccc(Cl)cc1C(Nc1cccnc1)c1ccc2cccnc2c1O (stereo not given),active: 1.12 µM,–
Cc1nc(NC(=O)C2CC2)sc1C(=O)Nc1ccccc1,"inconclusive: 10 µM [activator, partial curve]",–
O=C(Cc1ccccc1F)Nc1nc2ccccc2[nH]1,active: 10 µM,–
CCC1CCCCN1c1nc2c(C=O)c(C)nn2c2ccccc12 (stereo not given),"inconclusive: 15.8 µM [activator, partial curve, poor fit]",–
C[C@@H](C(=O)Nc1ccc2ccccc2c1)[C@H]1C[C@]1(C)[C@H](NC(=O)c1cccnc1)c1ccccc1,"inconclusive: 7.08 µM [activator, partial curve] and inconclusive: 20 µM [activator, single point]",–
CC(C)(C)c1ccc(C(=O)Nc2ccc(S(=O)(=O)Nc3cnc4ccccc4n3)cc2)cc1,"inconclusive: 35.5 µM [activator, single point]",–
O=C(c1cccs1)N1CCN(c2nc3ccccc3s2)CC1,"inconclusive: 8.91 µM [activator, partial curve]",–
Cc1cc(OCC(=O)Nn2cnnc2)c(C)cc1Br,"inconclusive: 4.47 µM [activator, full curve]",–
CCc1cccc2c(C(=O)C(F)(F)F)cn(CC(=O)N3CCOCC3)c12,–,inactive: 9.34%
O=Cc1cn(-c2ccccc2)nc1-c1ccccn1,"inconclusive: 12.6 µM [activator, single point]",–
O=C1NCCN(Cc2ccoc2)C1CC(=O)N(CCO)Cc1ccccc1 (stereo not given),–,inactive: -13.7%
COc1cc2c3nnc(-c4ccc(F)cc4)c-3cn(Cc3ccc(F)cc3)c2cc1OC,"inconclusive: 7.94 µM [inhibitor, partial curve]",–
COc1ccc(-c2[nH]c3ccccc3c2SCCNC(=O)c2cc3ccccc3oc2=O)cc1,"inconclusive: 15.8 µM [activator, partial curve, poor fit]",–

# Arranged by length of the SMILES (largest number first): part of the list above
Compound,Potency,"activity change, negative = inhibition"
C[C@@H](C(=O)Nc1ccc2ccccc2c1)[C@H]1C[C@]1(C)[C@H](NC(=O)c1cccnc1)c1ccccc1,"inconclusive: 7.08 µM [activator, partial curve] and inconclusive: 20 µM [activator, single point]",–
CCOC(=O)Cc1csc(NC(=O)CCc2ccc(S(=O)(=O)N3CCOCC3)cc2)n1,"inconclusive: 14.1 µM [activator, single point]",–
O=Cc1cn(-c2ccccc2)nc1-c1ccccn1,"inconclusive: 12.6 µM [activator, single point]",–

# More entries.

Compound,Potency,"activity change, negative = inhibition"
CN(CC(=O)Nc1ccncc1)S(=O)(=O)c1ccc(Br)cc1,–,inactive: 6.55%
Cn1c(-c2ccc3c(c2)OCO3)cnc1N,"inconclusive: 0.0355 µM [inhibitor, full curve, poor fit]",–
COc1ccccc1NC(=O)CCCn1c(=S)[nH]c2ccccc2c1=O,active: 10 µM,–
O=C(NCCC1=CCCCC1)c1ccc(Cl)c(S(=O)(=O)Nc2ccccc2)c1,"inconclusive: 35.5 µM [activator, single point]",–
Cc1ccccc1Cn1cc(NC(=O)COc2ccccc2)cn1,"inconclusive: 22.4 µM [activator, single point]",–
COc1ccc(N2CCN(C(=O)C3CCCN(S(=O)(=O)c4c(C)noc4C)C3)CC2)cc1 (stereo not given),"inconclusive: 20 µM [activator, single point]",–
Cc1cc(C(=O)N/N=C/c2ccc(Cl)c([N+](=O)[O-])c2)c(C)n1-c1ccc(F)cc1,"inconclusive: 22.4 µM [activator, single point]",–
CC(C)(C)c1ccc(Cn2nnc3c(=O)[nH]c(C4CCN(C(=O)Cc5cccs5)CC4)nc32)cc1,–,inactive: 31.8%
O=C1S/C(=C\C=C\c2ccco2)C(=O)N1c1ccccc1,"inconclusive: 35.5 µM [inhibitor, single point]",–
c1ccc(CN=C2NN=C(c3cc4ccccc4o3)CS2)cc1,"inconclusive: 35.5 µM [inhibitor, single point]",–
O=C1C(=O)N(CCCc2ccccc2)c2ccccc21,"inconclusive: 1 µM [activator, full curve, poor fit]",–
N/C(=N\OC(=O)COc1ccccc1Cl)c1ccc(Cl)cc1,"inconclusive: 35.5 µM [activator, single point]",–
O=C(Nc1nccs1)c1ccc(Cl)nc1,"inconclusive: 11.2 µM [inhibitor, single point]",–
Cc1ccc(C(=O)N(Cc2ccccc2)C(C)(C)C)cc1C,"inconclusive: 6.31 µM [activator, full curve, poor fit]",–
COc1cccc(NC(=S)N(CCN2CCCCC2)Cc2ccco2)c1,"inconclusive: 10 µM [inhibitor, partial curve]",–
COc1ccc(C(=O)CC(=O)c2ccc(OC)cc2)cc1,active: 12.6 µM,–
COc1ccc(N(CC(=O)NCc2ccccc2C)S(=O)(=O)c2ccccc2[N+](=O)[O-])c(OC)c1,"inconclusive: 31.6 µM [activator, single point]",–
O=C(Cc1ccc(Cl)cc1)NNc1c(F)c(F)cc(F)c1F,"inconclusive: 12.6 µM [activator, partial curve]",–
CC(=O)Nc1cccc(-c2csc(Nc3ccc(Cl)cn3)n2)c1,–,inactive: 0.254%
C/C(=N\NC(=O)c1nonc1N)c1cccs1,active: 0.316 µM,–
Cc1cccc(CNc2ccnc(-c3ccc(N(C)C)cc3)n2)c1,"inconclusive: 2.24 µM [activator, partial curve, poor fit]",–
Cc1cccc(N2CCN(C(=O)C3CCN(S(=O)(=O)c4c(C)noc4C)CC3)CC2C)c1 (stereo not given),"inconclusive: 22.4 µM [activator, single point]",–
